Test results reported in article PMC8257531.
Results are given in words; binding and its absence hold for the method and conditions named. Binding seen in cells or lysates may run through a third protein. Here binding means that the protein was enriched with, or labelled near, the bait; the list need not be complete.

Sequences of proteins named here, by UniProt entry; tags and fusion partners are left off.
UniProt Q14789: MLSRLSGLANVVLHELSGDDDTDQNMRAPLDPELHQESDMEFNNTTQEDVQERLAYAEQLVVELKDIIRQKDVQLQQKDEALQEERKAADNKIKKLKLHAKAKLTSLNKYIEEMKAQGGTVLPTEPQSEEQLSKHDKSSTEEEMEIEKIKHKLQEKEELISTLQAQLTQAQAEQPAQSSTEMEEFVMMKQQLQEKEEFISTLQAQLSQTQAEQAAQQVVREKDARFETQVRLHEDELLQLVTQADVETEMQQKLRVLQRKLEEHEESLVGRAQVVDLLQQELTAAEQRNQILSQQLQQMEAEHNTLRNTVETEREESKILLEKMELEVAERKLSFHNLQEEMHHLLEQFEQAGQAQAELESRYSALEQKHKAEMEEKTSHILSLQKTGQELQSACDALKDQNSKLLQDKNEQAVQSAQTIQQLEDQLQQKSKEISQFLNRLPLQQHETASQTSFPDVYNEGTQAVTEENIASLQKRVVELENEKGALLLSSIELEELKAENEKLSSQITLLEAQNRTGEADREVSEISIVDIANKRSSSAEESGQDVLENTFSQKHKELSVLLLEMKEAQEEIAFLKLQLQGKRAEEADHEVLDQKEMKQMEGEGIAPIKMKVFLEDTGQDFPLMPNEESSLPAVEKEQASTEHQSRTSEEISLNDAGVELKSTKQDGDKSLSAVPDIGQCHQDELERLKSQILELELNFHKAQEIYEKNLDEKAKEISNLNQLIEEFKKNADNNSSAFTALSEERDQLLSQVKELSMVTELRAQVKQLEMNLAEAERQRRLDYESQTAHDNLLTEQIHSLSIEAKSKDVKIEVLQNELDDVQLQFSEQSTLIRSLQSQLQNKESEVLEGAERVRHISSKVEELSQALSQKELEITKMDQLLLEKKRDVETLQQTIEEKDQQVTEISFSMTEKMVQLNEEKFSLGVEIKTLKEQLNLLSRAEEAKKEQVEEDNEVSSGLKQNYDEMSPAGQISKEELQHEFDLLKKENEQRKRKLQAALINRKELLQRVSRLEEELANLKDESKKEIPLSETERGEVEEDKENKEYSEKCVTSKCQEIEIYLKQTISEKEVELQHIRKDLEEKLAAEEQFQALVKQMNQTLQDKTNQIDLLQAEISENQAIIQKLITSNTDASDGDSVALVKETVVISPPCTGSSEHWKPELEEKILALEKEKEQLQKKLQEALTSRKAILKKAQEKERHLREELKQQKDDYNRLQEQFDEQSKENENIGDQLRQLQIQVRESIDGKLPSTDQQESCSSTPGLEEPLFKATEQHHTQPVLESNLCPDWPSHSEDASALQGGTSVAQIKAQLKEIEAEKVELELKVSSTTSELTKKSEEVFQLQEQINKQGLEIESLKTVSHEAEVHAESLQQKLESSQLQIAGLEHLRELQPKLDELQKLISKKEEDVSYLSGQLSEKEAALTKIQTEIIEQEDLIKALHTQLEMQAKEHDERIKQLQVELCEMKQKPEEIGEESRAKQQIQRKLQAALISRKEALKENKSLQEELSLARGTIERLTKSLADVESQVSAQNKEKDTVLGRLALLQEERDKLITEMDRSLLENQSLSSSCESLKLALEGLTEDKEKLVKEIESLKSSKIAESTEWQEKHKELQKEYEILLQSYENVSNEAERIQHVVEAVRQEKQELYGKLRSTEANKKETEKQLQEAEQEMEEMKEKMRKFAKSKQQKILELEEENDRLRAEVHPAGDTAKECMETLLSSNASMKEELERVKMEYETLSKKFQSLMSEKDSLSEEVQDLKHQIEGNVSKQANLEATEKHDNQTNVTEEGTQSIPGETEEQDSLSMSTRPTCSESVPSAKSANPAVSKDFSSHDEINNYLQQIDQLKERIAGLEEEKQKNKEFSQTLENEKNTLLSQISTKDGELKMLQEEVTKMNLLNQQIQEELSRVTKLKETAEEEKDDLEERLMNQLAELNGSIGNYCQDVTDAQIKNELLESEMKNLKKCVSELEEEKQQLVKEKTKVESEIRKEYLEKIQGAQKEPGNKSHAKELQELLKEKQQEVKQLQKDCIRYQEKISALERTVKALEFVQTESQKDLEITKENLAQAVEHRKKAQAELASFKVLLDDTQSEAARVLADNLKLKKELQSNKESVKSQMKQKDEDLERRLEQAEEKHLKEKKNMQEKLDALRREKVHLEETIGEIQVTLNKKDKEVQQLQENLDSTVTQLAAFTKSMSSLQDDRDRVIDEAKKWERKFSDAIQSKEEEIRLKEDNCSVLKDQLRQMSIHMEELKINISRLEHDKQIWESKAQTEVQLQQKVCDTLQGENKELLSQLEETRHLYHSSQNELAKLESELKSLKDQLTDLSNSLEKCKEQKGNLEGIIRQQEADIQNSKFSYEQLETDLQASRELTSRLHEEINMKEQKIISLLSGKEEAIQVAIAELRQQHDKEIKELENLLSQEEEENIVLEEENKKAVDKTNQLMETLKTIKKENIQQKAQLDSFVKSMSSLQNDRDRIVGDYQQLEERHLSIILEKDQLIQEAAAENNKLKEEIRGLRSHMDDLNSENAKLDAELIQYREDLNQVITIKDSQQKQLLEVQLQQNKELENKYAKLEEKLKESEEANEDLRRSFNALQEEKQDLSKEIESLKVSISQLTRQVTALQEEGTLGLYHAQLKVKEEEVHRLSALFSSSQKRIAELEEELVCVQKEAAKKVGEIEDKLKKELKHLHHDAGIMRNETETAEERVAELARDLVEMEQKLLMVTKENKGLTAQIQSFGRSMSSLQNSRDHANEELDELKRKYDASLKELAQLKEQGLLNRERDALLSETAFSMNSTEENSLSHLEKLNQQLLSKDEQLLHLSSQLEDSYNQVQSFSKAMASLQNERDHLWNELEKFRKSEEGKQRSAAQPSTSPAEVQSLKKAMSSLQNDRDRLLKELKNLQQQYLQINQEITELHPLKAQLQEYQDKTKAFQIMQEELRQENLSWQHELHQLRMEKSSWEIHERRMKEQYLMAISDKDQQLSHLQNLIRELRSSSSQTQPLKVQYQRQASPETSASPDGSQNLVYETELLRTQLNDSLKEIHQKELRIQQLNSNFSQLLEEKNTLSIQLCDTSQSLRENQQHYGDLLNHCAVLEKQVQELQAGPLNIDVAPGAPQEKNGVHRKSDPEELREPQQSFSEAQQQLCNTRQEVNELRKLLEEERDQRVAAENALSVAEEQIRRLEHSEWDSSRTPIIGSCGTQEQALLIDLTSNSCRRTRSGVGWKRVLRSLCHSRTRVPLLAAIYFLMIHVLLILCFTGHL
UniProt Q13439: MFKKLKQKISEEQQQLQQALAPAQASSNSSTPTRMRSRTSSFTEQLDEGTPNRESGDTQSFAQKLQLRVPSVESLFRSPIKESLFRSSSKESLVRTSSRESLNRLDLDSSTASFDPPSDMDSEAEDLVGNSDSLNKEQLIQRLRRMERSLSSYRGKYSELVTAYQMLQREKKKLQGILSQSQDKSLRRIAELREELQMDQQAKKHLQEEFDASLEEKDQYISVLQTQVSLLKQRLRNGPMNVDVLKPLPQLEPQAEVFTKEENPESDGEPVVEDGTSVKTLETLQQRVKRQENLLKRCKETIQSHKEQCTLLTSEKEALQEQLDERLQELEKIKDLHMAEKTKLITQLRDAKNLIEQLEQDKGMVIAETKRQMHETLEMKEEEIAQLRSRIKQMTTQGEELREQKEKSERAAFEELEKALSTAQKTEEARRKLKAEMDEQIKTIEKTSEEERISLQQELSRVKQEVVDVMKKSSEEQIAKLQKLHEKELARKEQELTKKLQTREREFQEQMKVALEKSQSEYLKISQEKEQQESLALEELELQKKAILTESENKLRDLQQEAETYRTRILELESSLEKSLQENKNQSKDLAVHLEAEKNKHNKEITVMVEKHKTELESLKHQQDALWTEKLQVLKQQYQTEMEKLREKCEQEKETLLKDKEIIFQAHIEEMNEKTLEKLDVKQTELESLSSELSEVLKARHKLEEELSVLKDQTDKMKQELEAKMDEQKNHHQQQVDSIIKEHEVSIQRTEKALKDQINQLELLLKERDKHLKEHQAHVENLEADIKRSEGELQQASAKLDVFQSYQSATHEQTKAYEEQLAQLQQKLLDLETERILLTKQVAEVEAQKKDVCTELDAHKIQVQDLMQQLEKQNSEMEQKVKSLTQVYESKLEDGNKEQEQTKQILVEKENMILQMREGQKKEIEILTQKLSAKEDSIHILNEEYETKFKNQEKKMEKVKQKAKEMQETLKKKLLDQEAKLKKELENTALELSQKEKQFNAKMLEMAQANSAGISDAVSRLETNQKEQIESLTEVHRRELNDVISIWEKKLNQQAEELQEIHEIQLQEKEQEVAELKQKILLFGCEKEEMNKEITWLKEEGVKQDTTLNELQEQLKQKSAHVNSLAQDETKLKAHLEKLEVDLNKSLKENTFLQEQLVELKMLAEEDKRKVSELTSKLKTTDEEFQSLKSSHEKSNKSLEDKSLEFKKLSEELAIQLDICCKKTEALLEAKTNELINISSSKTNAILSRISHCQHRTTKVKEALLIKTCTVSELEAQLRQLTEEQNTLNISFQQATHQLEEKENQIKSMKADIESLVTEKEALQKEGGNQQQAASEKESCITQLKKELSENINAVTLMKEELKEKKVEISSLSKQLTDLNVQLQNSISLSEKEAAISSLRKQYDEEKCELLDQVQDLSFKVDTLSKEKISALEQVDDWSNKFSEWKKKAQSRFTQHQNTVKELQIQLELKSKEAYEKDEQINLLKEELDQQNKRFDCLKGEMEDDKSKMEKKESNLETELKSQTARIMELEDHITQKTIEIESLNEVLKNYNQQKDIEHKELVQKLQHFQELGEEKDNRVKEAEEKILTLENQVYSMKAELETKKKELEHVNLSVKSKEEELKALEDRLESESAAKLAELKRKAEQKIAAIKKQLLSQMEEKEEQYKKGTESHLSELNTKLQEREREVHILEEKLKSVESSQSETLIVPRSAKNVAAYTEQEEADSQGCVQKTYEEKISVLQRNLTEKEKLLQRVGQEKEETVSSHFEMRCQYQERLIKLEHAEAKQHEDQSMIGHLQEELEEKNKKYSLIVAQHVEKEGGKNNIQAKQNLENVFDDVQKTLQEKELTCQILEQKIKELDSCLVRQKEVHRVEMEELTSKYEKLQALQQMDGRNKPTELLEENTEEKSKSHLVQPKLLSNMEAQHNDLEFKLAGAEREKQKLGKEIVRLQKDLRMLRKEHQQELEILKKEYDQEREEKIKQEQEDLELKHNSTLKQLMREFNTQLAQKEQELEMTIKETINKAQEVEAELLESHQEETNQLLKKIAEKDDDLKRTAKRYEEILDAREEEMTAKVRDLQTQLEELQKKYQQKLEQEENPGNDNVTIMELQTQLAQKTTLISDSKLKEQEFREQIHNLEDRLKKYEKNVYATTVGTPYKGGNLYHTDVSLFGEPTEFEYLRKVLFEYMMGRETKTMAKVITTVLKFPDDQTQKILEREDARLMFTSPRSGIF

Molecular target: T1, ARL15^A86L (BioID bait) (UniProt Q9NXU5)
T1 sequence: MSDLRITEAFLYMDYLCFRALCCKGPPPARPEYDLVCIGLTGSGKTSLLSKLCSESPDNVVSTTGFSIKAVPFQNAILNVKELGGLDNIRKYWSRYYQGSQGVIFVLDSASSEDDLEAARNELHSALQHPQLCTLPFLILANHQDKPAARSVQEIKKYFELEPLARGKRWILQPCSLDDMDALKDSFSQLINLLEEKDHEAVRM
Test: proximity labelling; BioID; cleared lysates of ARL15^A86L expressing Flp-In T-REx HeLa cells on streptavidin beads, on-bead trypsin digestion, mass spectrometry; SAINT AvgP >= 0.95

Row | binding | Substance
1 | binds | GOLGB1 (from UniProt Q14789 1-3259)
2 | binds | GOLGA4 (from UniProt Q13439 1-2230)
